Data taken from publication PMC9986639.
Results are given in words; binding and its absence hold for the method and conditions named. Binding seen in cells or lysates may run through a third protein. Some binding calls cover weakened binding; strength is not graded here. Tags and fused reporters may be left off the sequences shown.

Protein sequences, listed by entry. Tags and fused reporters are not part of them.
UniProt P53350: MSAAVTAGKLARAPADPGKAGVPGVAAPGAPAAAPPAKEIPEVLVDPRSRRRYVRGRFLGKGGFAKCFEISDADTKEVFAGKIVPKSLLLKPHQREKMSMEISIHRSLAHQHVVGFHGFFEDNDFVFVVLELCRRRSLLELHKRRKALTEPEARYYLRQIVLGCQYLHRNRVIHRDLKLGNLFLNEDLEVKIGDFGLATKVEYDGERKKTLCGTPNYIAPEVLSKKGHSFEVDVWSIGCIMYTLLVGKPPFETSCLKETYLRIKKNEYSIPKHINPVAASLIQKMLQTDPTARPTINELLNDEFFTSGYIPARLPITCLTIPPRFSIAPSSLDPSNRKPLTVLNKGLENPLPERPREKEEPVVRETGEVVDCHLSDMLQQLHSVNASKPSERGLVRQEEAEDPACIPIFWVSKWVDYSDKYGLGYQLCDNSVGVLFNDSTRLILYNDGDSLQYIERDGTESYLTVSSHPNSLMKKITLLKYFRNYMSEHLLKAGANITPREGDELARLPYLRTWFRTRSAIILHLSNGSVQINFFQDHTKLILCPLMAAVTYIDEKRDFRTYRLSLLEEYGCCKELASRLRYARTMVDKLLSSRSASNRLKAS

Target: T1, TXN1-6×His (thioredoxin 1) (UniProt P10599)
T1 sequence: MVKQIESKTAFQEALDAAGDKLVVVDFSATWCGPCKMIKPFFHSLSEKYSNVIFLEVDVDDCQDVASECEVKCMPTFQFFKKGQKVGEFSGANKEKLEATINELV
Assay: cross-linking; live HEK293T cells transfected with the His-tagged bait, 0.5 mM BVSB or PDES (1 h at 4°C and 2 h at RT, in PBS); lysis in 8 M urea, Ni-NTA, trypsin, SCX fractions; cross-linked peptides identified by LC-MS/MS (pLink2)

binding: binds
Substance: PLK1 (from UniProt P53350 1-603) (enzyme)
